These are yes or no findings as the source states them, for the method shown. Binding seen in cells or lysates may run through a third protein. Some entries that bind do so weakly or less than the wild type.
Target: T1, interferon regulatory factor 1 (human (endogenous in A375)) (UniProt P10914)
T1 sequence: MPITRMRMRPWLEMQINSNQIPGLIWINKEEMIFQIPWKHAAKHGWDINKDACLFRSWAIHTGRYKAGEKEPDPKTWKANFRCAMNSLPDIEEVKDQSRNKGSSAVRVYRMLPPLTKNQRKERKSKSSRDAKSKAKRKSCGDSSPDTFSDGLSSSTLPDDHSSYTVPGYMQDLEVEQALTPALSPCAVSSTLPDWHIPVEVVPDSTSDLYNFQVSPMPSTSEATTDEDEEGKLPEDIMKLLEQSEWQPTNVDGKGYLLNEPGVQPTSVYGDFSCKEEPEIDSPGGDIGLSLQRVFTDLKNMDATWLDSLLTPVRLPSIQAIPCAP
Experiment: proximity ligation; fixed A375 cells, primary antibodies against the two proteins, Duolink PLA probes, signal only when the two proteins are <= 40 nm apart; siP4HB or IRF1 interference cells compared with control

The chains behind the UniProt entries cited, without tags or fusion partners. Residues count along the entry.
UniProt P07237, residues 18-508: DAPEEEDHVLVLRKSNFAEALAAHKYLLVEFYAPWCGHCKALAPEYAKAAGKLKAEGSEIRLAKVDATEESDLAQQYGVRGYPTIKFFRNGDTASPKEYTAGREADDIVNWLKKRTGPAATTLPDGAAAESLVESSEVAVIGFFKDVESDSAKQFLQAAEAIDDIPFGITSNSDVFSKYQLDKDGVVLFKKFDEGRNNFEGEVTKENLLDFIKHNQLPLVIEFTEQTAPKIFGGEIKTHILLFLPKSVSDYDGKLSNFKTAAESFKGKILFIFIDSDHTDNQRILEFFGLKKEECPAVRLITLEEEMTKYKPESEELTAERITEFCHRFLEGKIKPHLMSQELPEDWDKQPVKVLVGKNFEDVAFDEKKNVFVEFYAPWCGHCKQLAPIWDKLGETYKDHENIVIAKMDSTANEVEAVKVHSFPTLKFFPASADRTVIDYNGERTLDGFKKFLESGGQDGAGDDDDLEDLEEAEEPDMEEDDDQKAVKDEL

- binding: binds
Substance: prolyl 4-hydroxylase beta polypeptide (from UniProt P07237 18-508)

Reference: publication PMC7532676, “Salidroside can target both P4HB-mediated inflammation and melanogenesis of the skin” (Theranostics, 2020)
